In experiment [1] the target is T1, TNFR1 (mouse, endogenous) (mouse (endogenous in MEFs)) (UniProt P25118).
T1 sequence: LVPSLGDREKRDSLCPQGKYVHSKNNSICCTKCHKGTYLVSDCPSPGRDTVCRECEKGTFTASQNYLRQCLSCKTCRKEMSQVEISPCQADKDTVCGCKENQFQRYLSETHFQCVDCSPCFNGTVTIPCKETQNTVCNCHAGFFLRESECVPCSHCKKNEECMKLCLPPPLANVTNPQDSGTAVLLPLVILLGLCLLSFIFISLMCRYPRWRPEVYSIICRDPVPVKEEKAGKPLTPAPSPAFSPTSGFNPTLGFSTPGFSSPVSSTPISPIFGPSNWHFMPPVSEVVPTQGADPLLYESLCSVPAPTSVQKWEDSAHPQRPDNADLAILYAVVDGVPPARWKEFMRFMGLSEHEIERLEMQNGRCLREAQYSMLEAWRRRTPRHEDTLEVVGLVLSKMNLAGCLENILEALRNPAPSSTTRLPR
The experiment is described as follows: co-IP; complex I precipitated with TNFR1 antibody from Ripk1+/+ and Ripk1K612R/K612R MEFs treated with mTNFα (100 ng/ml) for indicated times; western blot. In general terms: A western blot detects proteins with antibodies after separation by electrophoresis.

In experiment [2] the target is T2, myc-hRIPK1-WT (full length) (human), Q13546.
T2 chain: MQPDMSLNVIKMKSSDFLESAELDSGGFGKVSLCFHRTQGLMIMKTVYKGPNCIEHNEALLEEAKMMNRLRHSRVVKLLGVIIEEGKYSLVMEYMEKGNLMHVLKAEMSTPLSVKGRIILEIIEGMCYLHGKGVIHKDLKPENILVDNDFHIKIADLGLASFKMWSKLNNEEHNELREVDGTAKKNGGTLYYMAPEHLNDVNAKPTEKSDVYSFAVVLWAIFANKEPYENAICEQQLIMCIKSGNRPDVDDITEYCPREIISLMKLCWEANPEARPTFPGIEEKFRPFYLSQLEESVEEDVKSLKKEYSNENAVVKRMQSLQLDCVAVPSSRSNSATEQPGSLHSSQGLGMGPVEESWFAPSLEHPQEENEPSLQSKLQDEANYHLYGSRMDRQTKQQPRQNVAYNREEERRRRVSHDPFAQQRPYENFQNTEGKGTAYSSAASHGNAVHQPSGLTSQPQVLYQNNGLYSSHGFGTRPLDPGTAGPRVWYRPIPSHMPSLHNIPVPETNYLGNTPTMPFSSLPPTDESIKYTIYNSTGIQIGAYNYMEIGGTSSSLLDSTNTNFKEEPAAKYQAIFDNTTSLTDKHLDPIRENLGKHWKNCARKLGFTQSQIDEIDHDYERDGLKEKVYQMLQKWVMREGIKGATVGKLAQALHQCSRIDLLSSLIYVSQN
The experiment in a line: co-IP; HEK293T cells cotransfected for 18 h; lysates precipitated with anti-Myc conjugated agarose beads; western blot. Conditions: remark: other sources report otherwise.

For experiment [3], the target named is RIPK3 (mouse, endogenous) (mouse (endogenous in MEFs and BMDMs)), Q9QZL0. The experiment is described as follows: co-IP; complex IIb precipitated with RIPK3 antibodies from Ripk1+/+ and Ripk1K612R/K612R MEFs pretreated with SM-164 (100 nM) or 5Z-7 (200 nM) for 2 h, then mTNFα (100 ng/ml)/Z-VAD (25 μM); western blot. Conditions: remark: other sources report otherwise.

Experimental findings from paper PMC7733462 are described below.

Results are given in words; binding and its absence hold for the method and conditions named. Binding seen in cells or lysates may run through a third protein. Some binding calls cover weakened binding; strength is not graded here. For some of these results: Where a sequence is shown, tags or fusion partners need not be part of it.

B1: TRADD (mouse, endogenous) (protein, UniProt Q3U0V2 1-310)
chain: MAAGQNGHEEWVGSAYLFLESAVDKVILSEAYTDPKKKVAIYKALQTALSESGDSSDVLQILKIHCSDPQLIVQLRFCGRVLCGRFLQAYREGALRTALQRCMAPALAQEALRLQLELRAGAEQLDSWLTDEERCLNYILAQKPDRLRDEELAELEDELCKLTCDCTGQGGAIQVASAGSKFPVSSPTEEKPLPAACQTFLFHGQLVVNRPLTLQDQQTFARSVGLKWRRVGRSLQRNCRALRDPALDSLAYEYERDGLYEQAFQLLRRFMQAEGRRATLQRLVEALEENELTSLAEDLLGQAEPDGGLA
In the case of B1, in experiment [1], the binding result is listed as “binds”.

B2: HOIL (mouse, endogenous) (protein, UniProt Q9WUB0 1-508)
chain: MDEKTKKAEEMALSLARAVAGGDEQAAIKYATWLAEQRVPLRVQVKPEVSPTQDIRLCVSVEDAYMHTVTIWLTVRPDMTVASLKDMVFLDYGFPPSLQQWVVGQRLARDQETLHSHGIRRNGDGAYLYLLSARNTSLNPQELQRQRQLRMLEDLGFKDLTLQSRGPLEPVLPKPRTNQEPGQPDAAPESPPVGWQCPGCTFINKPTRPGCEMCCRARPETYQIPASYQPDEEERARLAGEEEALRQYQQRKQQQQEGNYLQHVQLEQRSLVLNTEPTECPVCYSVLAPGEAVVLRECLHTFCRECLQGTIRNSQEAEVACPFIDSTYSCPGKLLEREIRALLSPEDYQRFLDLGVSIAENRSTLSYHCKTPDCRGWCFFEDDVNEFTCPVCTRVNCLLCKAIHEHMNCREYQDDLALRAQNDVAARQTTEMLKVMLQQGEAMHCPQCRIVVQKKDGCDWIRCTVCHTEICWVTKGPRWGPGGPGDTSGGCRCRVNGIPCHPSCQNCH
Take B2: the binding result in experiment [1] is reported as “binds”.

B3: SHARPIN (mouse, endogenous) (protein, UniProt Q91WA6 1-380)
chain: MSPPAGGAAVAADPASPVVLLAVHAAVRPLGAGQDAEAQPRKLQLIADPERPGRFRLGLLGTEPGAVSLEWPLEAICYTVRGPNQHELQPPPGGPGTFSVHFLDPEEAQQWAALVRDATAEGQNGSGSPAPAPAPAMCPISPPCSSMAQIPKATQPEVDLPQSSGNFKKEELATRLSQAIAGGDEKAAAQVAAVLAQHHVALNVQLMEAWFPPGPIRLQVTVEDATSVLSSSSSAHVSLKIHPHCSIAALQDQVFSEFGFPPAVQRWVIGRCLCMPERSLASYGVSQDGDPAFLYLLSAPREVSGQSLQNSKMDRKLGLFPQSLGLPHDLQPSSSSLPSPSQPGWSCPSCTFINASNRPGCEMCSTQRPCAWDPLAAAST
As for B3, the binding result in experiment [1] was “binds”.

B4: TAK1 (mouse, endogenous) (enzyme, UniProt Q62073 1-579)
chain: MSTASAASSSSSSSASEMIEAPSQVLNFEEIDYKEIEVEEVVGRGAFGVVCKAKWRAKDVAIKQIESESERKAFIVELRQLSRVNHPNIVKLYGACLNPVCLVMEYAEGGSLYNVLHGAEPLPYYTAAHAMSWCLQCSQGVAYLHSMQPKALIHRDLKPPNLLLVAGGTVLKICDFGTACDIQTHMTNNKGSAAWMAPEVFEGSNYSEKCDVFSWGIILWEVITRRKPFDEIGGPAFRIMWAVHNGTRPPLIKNLPKPIESLMTRCWSKDPSQRPSMEEIVKIMTHLMRYFPGADEPLQYPCQYSDEGQSNSATSTGSFMDIASTNTSNKSDTNMEQVPATNDTIKRLESKLLKNQAKQQSESGRLSLGASRGSSVESLPPTSEGKRMSADMSEIEARIVATAGNGQPRRRSIQDLTVTGTEPGQVSSRSSSPSVRMITTSGPTSEKPARSHPWTPDDSTDTNGSDNSIPMAYLTLDHQLQPLAPCPNSKESMAVFEQHCKMAQEYMKVQTEIALLLQRKQELVAELDQDEKDQQNTSRLVQEHKKLLDENKSLSTYYQQCKKQLEVIRSQQQKRQGTS
For B4, the binding entry in experiment [1] was “binds”.

B5: A20 (mouse, endogenous) (enzyme, UniProt Q60769 1-775)
chain: MAEQLLPQALYLSNMRKAVKIRERTPEDIFKPTNGIIYHFKTMHRYTLEMFRTCQFCPQFREIIHKALIDRSVQASLESQKKLNWCREVRKLVALKTNGDGNCLMHAACQYMWGVQDTDLVLRKALCSTLKETDTRNFKFRWQLESLKSQEFVETGLCYDTRNWNDEWDNLVKMASADTPAARSGLQYNSLEEIHIFVLSNILRRPIIVISDKMLRSLESGSNFAPLKVGGIYLPLHWPAQECYRYPIVLGYDSQHFVPLVTLKDSGPELRAVPLVNRDRGRFEDLKVHFLTDPENEMKEKLLKEYLIVMEIPVQGWDHGTTHLINAAKLDEANLPKEINLVDDYFELVQHEYKKWQENSDQARRAAHAQNPLEPSTPQLSLMDIKCETPNCPFFMSVNTQPLCHECSERRQKNQSKLPKLNSKLGPEGLPGVGLGSSNWSPEETAGGPHSAPPTAPSLFLFSETTAMKCRSPGCPFTLNVQHNGFCERCHARQINASHTADPGKCQACLQDVTRTFNGICSTCFKRTTAEPSSSLTSSIPASCHQRSKSDPSQLIQSLTPHSCHRTGNVSPSGCLSQAARTPGDRAGTSKCRKAGCMYFGTPENKGFCTLCFIEYRENKQSVTASEKAGSPAPRFQNNVPCLGRECGTLGSTMFEGYCQKCFIEAQNQRFHEARRTEEQLRSSQHRDMPRTTQVASRLKCARASCKNILACRSEELCMECQHLSQRVGSVAHRGEPTPEEPPKQRCRAPACDHFGNAKCNGYCNECYQFKQMYG
As for B5, in experiment [1], the binding result is reported as “binds”.

B6: HA-hRIPK1-WT, Q13546 1-671 (protein)
chain: MQPDMSLNVIKMKSSDFLESAELDSGGFGKVSLCFHRTQGLMIMKTVYKGPNCIEHNEALLEEAKMMNRLRHSRVVKLLGVIIEEGKYSLVMEYMEKGNLMHVLKAEMSTPLSVKGRIILEIIEGMCYLHGKGVIHKDLKPENILVDNDFHIKIADLGLASFKMWSKLNNEEHNELREVDGTAKKNGGTLYYMAPEHLNDVNAKPTEKSDVYSFAVVLWAIFANKEPYENAICEQQLIMCIKSGNRPDVDDITEYCPREIISLMKLCWEANPEARPTFPGIEEKFRPFYLSQLEESVEEDVKSLKKEYSNENAVVKRMQSLQLDCVAVPSSRSNSATEQPGSLHSSQGLGMGPVEESWFAPSLEHPQEENEPSLQSKLQDEANYHLYGSRMDRQTKQQPRQNVAYNREEERRRRVSHDPFAQQRPYENFQNTEGKGTAYSSAASHGNAVHQPSGLTSQPQVLYQNNGLYSSHGFGTRPLDPGTAGPRVWYRPIPSHMPSLHNIPVPETNYLGNTPTMPFSSLPPTDESIKYTIYNSTGIQIGAYNYMEIGGTSSSLLDSTNTNFKEEPAAKYQAIFDNTTSLTDKHLDPIRENLGKHWKNCARKLGFTQSQIDEIDHDYERDGLKEKVYQMLQKWVMREGIKGATVGKLAQALHQCSRIDLLSSLIYVSQN
Consider B6, for which the binding entry in experiment [2] is recorded as “binds”.

B7: murine RIPK1 (receptor interacting protein kinase 1), wild type, Q60855 1-656 (protein)
chain: MQPDMSLDNIKMASSDLLEKTDLDSGGFGKVSLCYHRSHGFVILKKVYTGPNRAEYNEVLLEEGKMMHRLRHSRVVKLLGIIIEEGNYSLVMEYMEKGNLMHVLKTQIDVPLSLKGRIIVEAIEGMCYLHDKGVIHKDLKPENILVDRDFHIKIADLGVASFKTWSKLTKEKDNKQKEVSSTTKKNNGGTLYYMAPEHLNDINAKPTEKSDVYSFGIVLWAIFAKKEPYENVICTEQFVICIKSGNRPNVEEILEYCPREIISLMERCWQAIPEDRPTFLGIEEEFRPFYLSHFEEYVEEDVASLKKEYPDQSPVLQRMFSLQHDCVPLPPSRSNSEQPGSLHSSQGLQMGPVEESWFSSSPEYPQDENDRSVQAKLQEEASYHAFGIFAEKQTKPQPRQNEAYNREEERKRRVSHDPFAQQRARENIKSAGARGHSDPSTTSRGIAVQQLSWPATQTVWNNGLYNQHGFGTTGTGVWYPPNLSQMYSTYKTPVPETNIPGSTPTMPYFSGPVADDLIKYTIFNSSGIQIGNHNYMDVGLNSQPPNNTCKEESTSRHQAIFDNTTSLTDEHLNPIRENLGRQWKNCARKLGFTESQIDEIDHDYERDGLKEKVYQMLQKWLMREGTKGATVGKLAQALHQCCRIDLLNHLIRASQS
In the case of B7, in experiment [3], the binding result is “binds”.
